The list shows a part of the results.
B1: il10ra_site1_normal_mot_HHH_b2_00277_af2_000000172_0001_1_17_H_._HHH_b1_03248_0001_0000200009_0000001_0_af2pred_0001 (protein)
chain: SSSSSSEEEEEVEELLEKAKRIPDPEERAYVLIRAFALASRLGDPELERLVKEVAQELLESSSSS
B2: il10ra_site1_normal_mot_HHH_b2_02053_af2_000000006_0001_3_19_H_._HHH_b1_07676_af2_0001_0000300010_0000003_0 (protein)
chain: SSSSSEREEIYRLLREALHIDDPEEREEVLEEALRLAEELGSEVLRHNIEFALEQARREGSSSSS
B3: il10ra_site1_normal_mot_HHH_b1_02809_af2_000000277_0001_40_57_H_._HHH_b1_00310_af2_0001_0000100002_0000002_0 (protein)
chain: SSSSDTAERALRIQIEAAEQIYEAGNPEYARLALRFAKHLAEELGNEELLEEIERLLKEISSSSS
B4: il10ra_site1_sap_20_mot_HHH_b1_00665_000000097_0001_23_39_H_._HHH_b1_06326_0001_0000300009_0000001_0_0001 (protein)
chain: SSSSDEDYKRAKELIREIVELLREGNPEEAKKVLEELRELAEERNSPVLEAVVRFLEELINSSSS
B5: il10ra_site1_normal_mot_HHH_b2_08186_000000021_0001_43_56_H_._HHH_b1_07456_af2_0001_0000400032_0000001_1 (protein)
chain: SSSSSDLEELIEELEELVERNDREEFLRILQEALQHAFRLGDEEALKILWELLKEMEELSSSSSS
B6: il10ra_site1_sap_16_mot_HHH_b2_07873_af2_000000172_0001_1_19_H_._HHH_b2_06046_0001_0000200005_0000001_0_0001 (protein)
chain: SSSSSDAKEEAEELLEEAEELIKQGDPRAIEVLLRAVRLAFEAGDKELLRELWELAHRLKSSSSS
B7: il10ra_site1_normal_mot_ems_3hM_3637_000000290_0001_1_19_H_._HHH_b2_04512_0001_0000200023_0000001_0_af2pred_0001 (protein)
chain: SSSSSEEKQRAFEILREVAELLKQGDDEEARRLLEEVEEIAEETNDPLLRHSAERARLVIESSSS
B8: il10ra_site1_sap_24_mot_HHH_b1_06914_000000280_0001_1_18_H_._HHH_b2_02502_0001_0000100004_0000002_0_0001_af2pred_dldesign_0_af2pred (protein)
chain: SSSSSSADQKAAEVYVEAVQALEAGDLEKAKELLEKLEKIAKEENSPNAKLMVKYLKSLLSSSSS
B9: il10ra_site1_normal_mot_HHH_b2_03330_000000161_0001_1_19_H_._HHH_b1_00317_af2_0001_0000400017_0000001_1 (protein)
chain: SSSSSELEERIRQLLEELEEAAERGDRELVARLVQEILQLITRLGNDELFHELWELFRRAASSSS
B10: il10ra_site1_normal_mot_HHH_b2_07145_000000158_0001_24_40_H_._HHH_b1_07898_af2_0001_0000200026_0000002_0 (protein)
chain: SSSSDEELFERVRRLIEEIVELLRNGDEERAQELTEEIEELAKEYNNFALKSSAEALKRQLSSSS

Target: il10ra, Q13651
Assay: yeast display titration

Apparent Kd, inactive:
B1 no binding seen
B2 no binding seen
B3 no binding seen
B4 no binding seen
B5 no binding seen
B6 no binding seen
B7 no binding seen
B8 no binding seen
B9 no binding seen
B10 no binding seen
